Experimental data taken from PMC5965902.
Results are given in words; binding and its absence hold for the method and conditions named. Binding seen in cells or lysates may run through a third protein. A yes stands for co-enrichment or nearness to the bait. Other partners may have been found. For some assays here: A no says only that the protein was not detected with the bait. For some assays here: Where a sequence is shown, tags or fusion partners need not be part of it.

T1: FLAG-RitR, wild type (Streptococcus pneumoniae), A0ACD7
T1 chain: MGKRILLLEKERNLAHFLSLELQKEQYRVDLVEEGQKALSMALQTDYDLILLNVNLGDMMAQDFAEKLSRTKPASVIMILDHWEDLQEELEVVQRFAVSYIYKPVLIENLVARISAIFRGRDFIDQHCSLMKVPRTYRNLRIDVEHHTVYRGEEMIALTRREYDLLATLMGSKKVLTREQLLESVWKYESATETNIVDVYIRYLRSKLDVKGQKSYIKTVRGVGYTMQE

B1: FLAG-RitR, wild type, A0ACD7PPZ9 1-229 (protein)
chain: MGKRILLLEKERNLAHFLSLELQKEQYRVDLVEEGQKALSMALQTDYDLILLNVNLGDMMAQDFAEKLSRTKPASVIMILDHWEDLQEELEVVQRFAVSYIYKPVLIENLVARISAIFRGRDFIDQHCSLMKVPRTYRNLRIDVEHHTVYRGEEMIALTRREYDLLATLMGSKKVLTREQLLESVWKYESATETNIVDVYIRYLRSKLDVKGQKSYIKTVRGVGYTMQE

Legend:
[1] = target: FLAG-RitR, wild type (Streptococcus pneumoniae); assay: immunoprecipitation, non-reducing SDS-PAGE, anti-FLAG blot and mass spectrometry of the bands; S. pneumoniae cells grown anaerobically; lysis with 10 mM iodoacetamide; M2 FLAG beads
[2] = target: T1, FLAG-RitR, wild type (Streptococcus …); assay: immunoprecipitation, non-reducing SDS-PAGE, anti-FLAG blot and mass spectrometry of the bands; S. pneumoniae cells grown aerated or statically in 5% CO2; lysis with 10 mM iodoacetamide; M2 FLAG beads; conditions: remark: other sources report otherwise

| Molecule | binding [1] | binding [2] |
| --- | --- | --- |
| FLAG-RitR, wild type (from UniProt A0ACD7PPZ9 1-229) | no binding (only cells grown anaerobically) |  |
| B1 |  | binds |
